{"sequences": {"note": "Amino acid sequences for entries named in this document (tags omitted).", "UniProt O00519, whole entry": "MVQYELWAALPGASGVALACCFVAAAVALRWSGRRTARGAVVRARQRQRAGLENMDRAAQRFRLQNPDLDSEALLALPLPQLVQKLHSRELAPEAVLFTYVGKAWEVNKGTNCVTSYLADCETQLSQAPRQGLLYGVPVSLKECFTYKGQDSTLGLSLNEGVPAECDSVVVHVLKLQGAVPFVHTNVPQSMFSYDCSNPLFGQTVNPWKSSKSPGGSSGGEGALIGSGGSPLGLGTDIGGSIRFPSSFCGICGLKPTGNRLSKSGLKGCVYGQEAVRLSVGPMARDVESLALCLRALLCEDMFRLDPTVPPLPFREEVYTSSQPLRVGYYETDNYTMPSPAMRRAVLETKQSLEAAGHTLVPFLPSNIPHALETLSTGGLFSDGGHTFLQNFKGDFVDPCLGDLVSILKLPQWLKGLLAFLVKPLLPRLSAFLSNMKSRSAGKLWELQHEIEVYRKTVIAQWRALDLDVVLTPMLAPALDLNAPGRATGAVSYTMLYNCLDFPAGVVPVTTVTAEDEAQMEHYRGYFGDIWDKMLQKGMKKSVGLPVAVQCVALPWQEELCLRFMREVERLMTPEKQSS"}, "source": "patent US9006269B2", "about": "“Azetidine derivatives” (Vernalis (R&D) Ltd., priority 2008, dated 2015)", "target": "FAAH (Homo sapiens (Human), UniProt O00519)", "assay": "Intrinsic FAAH inhibitory potency (summary statement)", "format": "biochemical", "conditions": "qualitative statement", "note": "For at least one compound, name, drawing or mass did not settle the structure."}
{"molecule": "COc1ccccc1-c1ccc(OC2CN(C(=O)Nc3cccnn3)C2)nc1", "note": "[Example 17, 3-[5-(2-Methoxy-phenyl)-pyridin-2-yloxy]-azetidine-1-carboxylic acid pyridazin-3-ylamine]", "values": [{"measurement": "intrinsic-FAAH inhibitory potency", "result": "good"}]}
